According to article PMC4546280:
Results are given in words; binding and its absence hold for the method and conditions named. Some results given as binding are weak or reduced against the parent protein; the word gives no strength.

Chains of the proteins cited; added tags and fusions are not shown.
UniProt Q13546: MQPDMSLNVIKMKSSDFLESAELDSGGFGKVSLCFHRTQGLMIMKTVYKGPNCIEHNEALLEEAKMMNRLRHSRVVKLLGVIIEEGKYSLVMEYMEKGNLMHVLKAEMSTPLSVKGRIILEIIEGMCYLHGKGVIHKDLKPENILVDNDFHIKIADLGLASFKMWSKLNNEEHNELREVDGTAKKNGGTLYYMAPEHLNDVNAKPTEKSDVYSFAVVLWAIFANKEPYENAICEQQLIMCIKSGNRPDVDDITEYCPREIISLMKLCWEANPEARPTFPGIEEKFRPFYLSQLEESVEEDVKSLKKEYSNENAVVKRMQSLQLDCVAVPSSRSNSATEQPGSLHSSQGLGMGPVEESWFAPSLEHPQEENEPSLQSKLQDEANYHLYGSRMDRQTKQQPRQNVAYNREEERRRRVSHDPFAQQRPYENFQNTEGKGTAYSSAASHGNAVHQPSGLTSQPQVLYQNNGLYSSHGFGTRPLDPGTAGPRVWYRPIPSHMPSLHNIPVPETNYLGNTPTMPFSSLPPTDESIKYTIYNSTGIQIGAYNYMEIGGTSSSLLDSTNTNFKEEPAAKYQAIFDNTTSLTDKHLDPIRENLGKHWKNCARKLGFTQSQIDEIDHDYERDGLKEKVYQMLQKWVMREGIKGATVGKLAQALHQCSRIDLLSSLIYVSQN

Target: RIPK1 fused to the GAL4 DNA-binding domain (human) (UniProt Q13546)
Assay: two-hybrid

binding: binds
Substance: RIPK3 fused to the GAL4 transcription activation domain (from UniProt Q9Y572-1 1-518)
